Not every detail of the peptide structures is certain; ends, links or a residue may be inferred.
Tested on: RIN 1046-38 cells
Settings: cAMP stimulation in RIN 1046-38 cells; second of duplicate assays
Method: An additional test for potency of the compounds of the invention measures their ability to stimulate cAMP production in RIN 1046-38 cells. This assay can be conducted as follows:
On day 1, 5×10^5 RIN 1046-38 cells (Drucker, D. J., et al., Proc Natl Acad Sci USA (1987) 84:3434-3438) are seeded into individual wells of 6-well dishes with 2.5 mL M199 culture medium. On day 4, cells are re-fed with fresh medium and on day 5 the assay is performed. […] Assays are only performed on cell passage ≤24.
At time -60 min, monolayers are washed twice with 2.5 mL PBS, and medium is changed to 1.0 mL of DMEM medium plus 4.5 g/l glucose and 0.1% BSA (assay medium). At 0 time, medium is aspirated and fresh assay medium, 1.0 mL, containing test compound is added. Test compound is added in 50 ul volume of PBS plus 0.1% BSA; controls are added in vehicle alone. Incubation is continued for 0 to 60 min.
At termination, conditioned medium and monolayer are harvested to measure both extra- and intracellular cAMP content. For extracellular measurement, medium is removed and centrifuged to remove any cellular debris. […] Aliquots (1/40th well content) of conditioned medium and ethanol cell extract are measured in duplicate for cAMP levels using an RIA kit by the acetylated protocol.
Insulin secretion can also be measured by the method described by Holst, J. J., et al. FEBS Letters (1987) 211:169-174 (supra). […]

Structure (SMILES): CC[C@H](C)[C@H](NC(=O)[C@H](Cc1ccccc1)NC(=O)[C@H](CCC(=O)O)NC(=O)[C@H](CCCCN)NC(=O)[C@H](C)NC(=O)[C@H](C)NC(=O)[C@H](CCC(N)=O)NC(=O)CNC(=O)[C@H](CCC(=O)O)NC(=O)[C@H](CC(C)C)NC(=O)[C@H](Cc1ccc(O)cc1)NC(=O)[C@H](CO)NC(=O)[C@H](CO)NC(=O)[C@@H](NC(=O)[C@H](CC(=O)O)NC(=O)[C@H](CO)NC(=O)[C@@H](NC(=O)[C@H](Cc1ccccc1)NC(=O)[C@@H](NC(=O)CNC(=O)[C@H](CCC(=O)O)NC(=O)[C@H](C)NC(=O)[C@H](Cc1c[nH]cn1)NC(=O)[C@H](CCCNC(=N)N)NC(=O)[C@@H](N)CCC(=O)O)[C@@H](C)O)[C@@H](C)O)C(C)C)C(=O)N[C@@H](C)C(=O)N[C@@H](Cc1c[nH]c2ccccc12)C(=O)N[C@@H](CC(C)C)C(=O)N[C@H](C(=O)N[C@@H](CCCCN)C(=O)NCC(=O)N[C@@H](CCCNC(=N)N)C(=O)NCC(=O)O)C(C)C [GLP-1(5-37)]
- ED50 nM Duplicate Assays (second value): 750 to 970 nM
